Article PMC10400764
Results are given in words; binding and its absence hold for the method and conditions named. Binding seen in cells or lysates may run through a third protein. Some binding calls cover weakened binding; strength is not graded here.

Target: PDGFRβ (human (endogenous in HUVEC and HBVP)) (UniProt P09619)
Assay: co-IP; HBVPs treated with lenvatinib at different concentrations for 2 h, then 60 ng/ml VEGF and 20 ng/ml PDGF-BB; lysate precipitated with PDGFRβ antibody, Protein A/G magnetic beads, blots for VEGFR2 and NRP-1

VEGFR2 (from UniProt P35968 20-1356) (receptor)
binding: binds
